Measurements published in publication doi:10.1101/787473.
Read-outs that look alike come from different tables or passages of the source. Results are given in words; binding and its absence hold for the method and conditions named. Binding seen in cells or lysates may run through a third protein. Some entries that bind do so weakly or less than the wild type.

By UniProt entry, the sequences of proteins in these tests, tags left out.
UniProt P18754: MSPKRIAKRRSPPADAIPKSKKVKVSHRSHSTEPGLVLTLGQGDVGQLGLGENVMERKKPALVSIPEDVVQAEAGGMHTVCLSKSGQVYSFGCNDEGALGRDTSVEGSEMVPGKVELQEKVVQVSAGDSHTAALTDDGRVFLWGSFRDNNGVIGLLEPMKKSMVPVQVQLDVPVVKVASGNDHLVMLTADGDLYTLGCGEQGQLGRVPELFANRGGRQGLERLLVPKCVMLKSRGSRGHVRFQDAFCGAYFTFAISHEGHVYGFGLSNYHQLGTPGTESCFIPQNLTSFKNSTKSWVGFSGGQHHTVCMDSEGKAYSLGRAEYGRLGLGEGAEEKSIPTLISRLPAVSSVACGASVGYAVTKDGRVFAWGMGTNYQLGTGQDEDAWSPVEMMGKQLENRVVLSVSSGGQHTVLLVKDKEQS
UniProt O00571: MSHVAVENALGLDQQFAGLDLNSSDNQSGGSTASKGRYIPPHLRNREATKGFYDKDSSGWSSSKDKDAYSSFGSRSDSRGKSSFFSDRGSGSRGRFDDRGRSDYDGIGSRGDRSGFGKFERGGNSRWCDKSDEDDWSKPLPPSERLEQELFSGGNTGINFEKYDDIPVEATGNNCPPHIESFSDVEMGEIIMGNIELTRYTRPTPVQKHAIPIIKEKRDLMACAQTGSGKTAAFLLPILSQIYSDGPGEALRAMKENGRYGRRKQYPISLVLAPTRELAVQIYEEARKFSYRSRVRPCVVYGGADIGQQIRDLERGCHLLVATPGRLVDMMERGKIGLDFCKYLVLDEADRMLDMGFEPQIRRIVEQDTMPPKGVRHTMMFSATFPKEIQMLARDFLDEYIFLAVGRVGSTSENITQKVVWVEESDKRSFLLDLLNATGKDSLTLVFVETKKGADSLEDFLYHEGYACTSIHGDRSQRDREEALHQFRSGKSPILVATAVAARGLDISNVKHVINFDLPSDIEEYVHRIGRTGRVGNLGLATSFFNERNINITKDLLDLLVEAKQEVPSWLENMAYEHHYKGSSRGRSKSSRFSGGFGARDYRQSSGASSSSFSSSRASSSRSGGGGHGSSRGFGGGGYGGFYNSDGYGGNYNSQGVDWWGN
UniProt Q14974: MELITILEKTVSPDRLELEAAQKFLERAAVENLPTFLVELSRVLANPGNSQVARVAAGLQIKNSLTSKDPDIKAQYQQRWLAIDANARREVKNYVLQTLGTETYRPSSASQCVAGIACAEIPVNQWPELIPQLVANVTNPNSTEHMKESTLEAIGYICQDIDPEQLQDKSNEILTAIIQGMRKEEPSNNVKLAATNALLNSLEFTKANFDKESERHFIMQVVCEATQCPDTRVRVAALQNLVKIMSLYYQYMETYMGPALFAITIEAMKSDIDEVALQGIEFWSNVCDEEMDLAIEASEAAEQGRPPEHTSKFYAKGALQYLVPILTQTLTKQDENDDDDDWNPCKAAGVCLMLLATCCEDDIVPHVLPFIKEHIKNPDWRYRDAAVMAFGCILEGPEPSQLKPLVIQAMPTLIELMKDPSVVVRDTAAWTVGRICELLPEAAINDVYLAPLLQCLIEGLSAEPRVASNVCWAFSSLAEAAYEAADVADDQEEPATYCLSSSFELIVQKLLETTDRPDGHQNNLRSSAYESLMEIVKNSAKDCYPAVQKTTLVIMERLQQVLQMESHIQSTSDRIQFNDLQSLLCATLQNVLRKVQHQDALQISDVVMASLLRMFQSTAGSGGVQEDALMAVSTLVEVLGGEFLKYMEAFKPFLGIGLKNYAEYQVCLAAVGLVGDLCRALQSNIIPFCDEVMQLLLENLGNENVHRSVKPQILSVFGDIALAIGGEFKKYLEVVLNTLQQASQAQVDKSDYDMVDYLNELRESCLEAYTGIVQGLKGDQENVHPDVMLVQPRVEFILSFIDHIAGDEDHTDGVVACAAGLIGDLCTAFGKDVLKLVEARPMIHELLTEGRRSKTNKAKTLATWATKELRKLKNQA
UniProt P35637: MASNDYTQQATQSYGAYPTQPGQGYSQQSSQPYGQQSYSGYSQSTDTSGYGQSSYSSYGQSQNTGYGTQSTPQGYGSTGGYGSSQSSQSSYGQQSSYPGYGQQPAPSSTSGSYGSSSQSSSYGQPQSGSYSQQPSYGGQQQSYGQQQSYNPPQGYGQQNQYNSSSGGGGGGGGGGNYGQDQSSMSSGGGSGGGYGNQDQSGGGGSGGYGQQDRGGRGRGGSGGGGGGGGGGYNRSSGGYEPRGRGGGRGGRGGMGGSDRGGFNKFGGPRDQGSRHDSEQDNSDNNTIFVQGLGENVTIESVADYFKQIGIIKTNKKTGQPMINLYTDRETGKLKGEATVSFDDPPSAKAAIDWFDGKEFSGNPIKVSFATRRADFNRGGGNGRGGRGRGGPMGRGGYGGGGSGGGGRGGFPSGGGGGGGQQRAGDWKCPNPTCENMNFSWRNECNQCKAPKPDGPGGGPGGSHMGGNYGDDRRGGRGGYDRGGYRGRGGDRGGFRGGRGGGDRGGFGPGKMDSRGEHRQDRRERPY
UniProt P37198: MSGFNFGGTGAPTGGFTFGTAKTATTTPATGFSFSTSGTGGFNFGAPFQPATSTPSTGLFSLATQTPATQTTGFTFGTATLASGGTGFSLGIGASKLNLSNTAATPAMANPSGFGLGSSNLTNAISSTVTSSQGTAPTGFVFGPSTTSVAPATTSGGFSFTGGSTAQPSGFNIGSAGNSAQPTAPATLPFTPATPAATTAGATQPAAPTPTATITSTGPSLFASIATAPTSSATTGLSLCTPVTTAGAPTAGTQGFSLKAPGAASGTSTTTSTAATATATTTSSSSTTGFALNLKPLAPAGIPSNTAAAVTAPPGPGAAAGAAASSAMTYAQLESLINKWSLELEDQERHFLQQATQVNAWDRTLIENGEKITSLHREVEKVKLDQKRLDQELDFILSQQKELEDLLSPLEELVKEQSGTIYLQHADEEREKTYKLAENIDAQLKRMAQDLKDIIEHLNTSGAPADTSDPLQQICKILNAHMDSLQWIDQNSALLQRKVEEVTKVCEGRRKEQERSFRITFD
UniProt Q92973: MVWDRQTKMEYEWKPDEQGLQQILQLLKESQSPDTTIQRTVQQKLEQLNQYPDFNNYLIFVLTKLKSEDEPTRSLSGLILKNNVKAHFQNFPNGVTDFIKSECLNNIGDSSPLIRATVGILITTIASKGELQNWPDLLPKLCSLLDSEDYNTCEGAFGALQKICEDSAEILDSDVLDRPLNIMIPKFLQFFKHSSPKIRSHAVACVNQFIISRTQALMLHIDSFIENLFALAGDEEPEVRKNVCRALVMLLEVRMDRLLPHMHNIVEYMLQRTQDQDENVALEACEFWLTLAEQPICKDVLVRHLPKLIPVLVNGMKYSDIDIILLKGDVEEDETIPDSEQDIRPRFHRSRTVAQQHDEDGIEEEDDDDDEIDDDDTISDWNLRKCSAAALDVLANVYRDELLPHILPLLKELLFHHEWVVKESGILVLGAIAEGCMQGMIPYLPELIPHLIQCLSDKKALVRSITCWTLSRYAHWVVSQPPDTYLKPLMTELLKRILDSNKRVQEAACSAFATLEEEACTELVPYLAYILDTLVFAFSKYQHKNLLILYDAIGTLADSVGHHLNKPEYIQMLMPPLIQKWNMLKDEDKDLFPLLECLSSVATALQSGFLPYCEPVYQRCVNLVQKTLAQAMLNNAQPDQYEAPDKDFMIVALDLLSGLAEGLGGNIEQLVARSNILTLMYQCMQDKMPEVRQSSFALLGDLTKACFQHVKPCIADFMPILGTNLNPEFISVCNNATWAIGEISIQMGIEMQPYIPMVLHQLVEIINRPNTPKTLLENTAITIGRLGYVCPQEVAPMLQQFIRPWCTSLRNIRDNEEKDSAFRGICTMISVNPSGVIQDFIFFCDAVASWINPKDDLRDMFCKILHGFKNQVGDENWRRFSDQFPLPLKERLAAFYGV
UniProt Q13148: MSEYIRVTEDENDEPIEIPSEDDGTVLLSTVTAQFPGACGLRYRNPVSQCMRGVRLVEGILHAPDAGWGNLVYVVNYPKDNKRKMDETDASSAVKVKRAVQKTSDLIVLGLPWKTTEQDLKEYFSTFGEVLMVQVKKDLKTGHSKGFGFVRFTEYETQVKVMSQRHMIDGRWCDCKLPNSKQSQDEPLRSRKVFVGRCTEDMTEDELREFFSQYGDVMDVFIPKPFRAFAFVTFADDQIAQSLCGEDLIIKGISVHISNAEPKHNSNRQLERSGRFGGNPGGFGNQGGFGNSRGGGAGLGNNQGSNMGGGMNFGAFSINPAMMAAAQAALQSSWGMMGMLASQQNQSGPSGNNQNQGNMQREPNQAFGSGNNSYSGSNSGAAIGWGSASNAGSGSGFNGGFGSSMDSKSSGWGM

What was measured:
Experiment in all cases: co-sedimentation
[1] = biological target: T1, PR10, synthetic poly-proline-arginine 10-mer dipeptide repeat protein with C-terminal lysine and cysteine
T1 sequence (peptide): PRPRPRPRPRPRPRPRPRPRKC

[2] = biological target: T2, GR10, synthetic poly-glycine-arginine 10-mer dipeptide repeat protein with C-terminal lysine and cysteine
T2 sequence (peptide): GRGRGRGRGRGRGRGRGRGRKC

[3] = biological target: T1, PR10, synthetic poly-proline-arginine 10-mer dipeptide repeat protein with C-terminal lysine and cysteine; remark: listed apart in the source
[4] = biological target: T2, GR10, synthetic poly-glycine-arginine 10-mer dipeptide repeat protein with C-terminal lysine and cysteine; remark: listed apart in the source

binding [1] | binding [2] | binding [3] | binding [4] | Substance
no binding | no binding | no binding | no binding | RCC1, endogenous in HEK cell lysate (from UniProt P18754 1-421)
binds | binds |  |  | ATP-dependent RNA helicase DDX3X, endogenous in HEK cell lysate (from UniProt O00571 1-662)

The next lines start with the substance.

Substance | binding [1] | binding [2] | binding [3] | binding [4]
importin β, endogenous in HEK cell lysate (from UniProt Q14974 1-876) | binds | binds |  | 
FUS, endogenous in HEK cell lysate (from UniProt P35637 1-526) | binds | binds | binds | binds
nucleoporin 62, endogenous in HEK cell lysate (from UniProt P37198 1-522) | binds | binds |  | 
TNPO1, endogenous in HEK cell lysate (from UniProt Q92973 1-898) | binds | binds |  | 
TDP-43, endogenous in HEK cell lysate (from UniProt Q13148 1-414) | binds | binds | binds | binds
